This note sets out measurements from PubChem BioAssay AID200 (DTP/NCI, 2004).

SMILES strings stand for the structures. The list shows only some results of the screen, not a fair sample: it gathers tests that were run many times, whatever their T/C, doses with no T/C, and many T/C values between a quarter and a half above the control. Other doses and runs of a compound stand elsewhere. T/C: endpoint of the treated group in % of that of the vehicle group. Some entries give survivors of the animals treated and no T/C: the source holds a T/C of zero for them, seemingly a mark for toxic or unscored doses. Some survivor counts are full or nearly so, which does not show that the dose was tolerated: the source hardly ever lists a survival T/C far under the control, and the zero likely stands for such cases as well. Counts of survivors are from the toxicity check (mostly the fifth day) where no day follows; animals may have died later. Schedules are NCI's codes, taken here to give the interval after Q, in days (D) or hours (H), and the number of doses after X. Brackets with × say how often a value occurs here. Some doses were run more than once; the results are listed from low to high. For survival time, this PubChem deposit counts one and a half times the control or more as active, and values a quarter to a half above the control carry no call in these data; other NCI protocols may use other cut-offs. Some T/C values carry the count of animals alive at the toxicity check (mostly the fifth day); where none is given, no animal had died by that day. Where a SMILES comes first, the peptide text is derived from it. [ ]: non-standard residue; d: D form. The star is where a group is joined. ξ: configuration not given here. Cbz = O=C(OCc1ccccc1)*; OBn = c1ccc(CO*)cc1; Bn = c1ccc(C*)cc1; ξC = NC(CS)C(=O)O

In the test the test system is B6C3F1 mice, B16 melanoma ip, median survival T/C. The test can be described thus: NCI In Vivo Anticancer Drug Screen. Data for tumor model B16 Melanoma (intraperitoneal) in B6C3F1 mice. Particulars: T/C endpoint: median survival time, schedule: Q01DX009 (ip), higher T/C = longer survival. The procedure, abridged: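 Values are T/C ratios: the measurement in treated animals divided by that in vehicle-treated controls, using survival or tumor size in mice carrying transplantable tumors.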

[1] abbreviates: dose: 12.5 mg/kg/injection, vehicle: distilled water + Tween-80.
Where [2] appears, read: dose: 25.0 mg/kg/injection, vehicle: distilled water + Tween-80.
Setting [3] is: dose: 50.0 mg/kg/injection, vehicle: distilled water + Tween-80.
[4] abbreviates: dose: 100.0 mg/kg/injection, vehicle: distilled water + Tween-80.
Where [5] appears, read: dose: 25.0 mg/kg/injection, vehicle: saline with Tween-80.
The mark [6] stands for this setting: dose: 50.0 mg/kg/injection, vehicle: saline with Tween-80.
[7] abbreviates: dose: 100.0 mg/kg/injection, vehicle: saline with Tween-80.
Where [8] appears, read: dose: 200.0 mg/kg/injection, vehicle: saline with Tween-80.
The mark [9] stands for this setting: dose: 400.0 mg/kg/injection, vehicle: saline with Tween-80.
[10] abbreviates: dose: 0.5 mg/kg/injection, vehicle: saline.
Setting [11] is: dose: 1.0 mg/kg/injection, vehicle: saline.
[12] abbreviates: dose: 2.0 mg/kg/injection, vehicle: saline.
The mark [13] stands for this setting: dose: 4.0 mg/kg/injection, vehicle: saline.
The mark [14] stands for this setting: dose: 8.0 mg/kg/injection, vehicle: saline.
Setting [15] is: dose: 400.0 mg/kg/injection, vehicle: Klucel (hydroxypropylcellulose) (HPC).

On to `COC1C(CO)OC(n2c3c(Cl)cccc3c3c4c(c5c6cccc(Cl)c6[nH]c5c32)C(=O)NC4=O)C(O)C1O` (stereo not given), for which the T/C was 125 and 132 % of control under setting [1]; 127 and 135 % of control under setting [2]; 136, 141, 144 % of control under setting [3]; 135 % of control [9 of 10 alive] under setting [4]; 141 and 144 % of control (dose: 200.0 mg/kg/injection, vehicle: distilled water + Tween-80). For the same molecule, for the setting “dose: 400.0 mg/kg/injection, vehicle: distilled water + Tween-80”, the survivor count was 9 of 10.

Take `O=C(CNC(=O)C(CSCc1ccccc1)NC(=O)OCc1ccccc1)NCC(=O)OCc1ccccc1` (stereo not drawn) (Cbz-[ξC](Bn)-Gly-Gly-OBn): the survivor count (dose: 50.0 mg/kg/injection, vehicle: Klucel (hydroxypropylcellulose) (HPC)) was 10 of 10.

Take `CN(C)C1C(=O)C(C(=O)NP(=O)(NCCCO)N(CCCl)CCCl)=C(O)C2(O)C(=O)C3=C(O)c4c(O)cccc4C(C)(O)C3CC12` (stereo not given): the T/C under setting [5] was 140 % of control; the T/C under setting [6] is 125 % of control; the T/C under setting [7] was 129 and 142 % of control; the T/C under setting [8] was 131 % of control. Further, the survivor count under setting [9] is 10 of 10 (2×).

As for `CCCCCCCC(=O)[O][Hg][CH2]C1COC([CH2][Hg][O]C(=O)CCCCCCC)CO1` (stereo not given), the survivor count under setting [5] is reported as 10 of 10; the survivor count under setting [6] is 0 of 10 and 4 of 10.

Take `CN1CCN(CCCN2c3ccccc3Sc3ccc(C(F)(F)F)cc32)CC1`: the survivor count (dose: 64.0 mg/kg/injection, vehicle: saline) was 4 of 10.

Regarding `COc1cc2c(c(OC)c1OC)-c1ccc(OC)c(=O)cc1[C@@H](NC(=O)CCl)CC2`, the T/C reads like this: (dose: 0.06 mg/kg/injection, vehicle: saline with Tween-80) 144 % of control; (dose: 0.5 mg/kg/injection, vehicle: saline with Tween-80) 131 % of control [9 of 10 alive]. Besides, where the note is “dose: 1.0 mg/kg/injection, vehicle: saline with Tween-80”, the survivor count is given as 6 of 10.

On to `c1cnc2ncncc2n1`, for which the survivor count (dose: 400.0 mg/kg/injection, vehicle: saline) was 2 of 10.

As for `Nc1ncn(C2CC(O)C(CO)O2)c(=O)n1` (stereo not given), the survivor count is 10 of 10 (dose: 0.5 mg/kg/injection, vehicle: Klucel (hydroxypropylcellulose) (HPC)); 10 of 10 under setting [10]; 10 of 10 (dose: 1.0 mg/kg/injection, vehicle: Klucel (hydroxypropylcellulose) (HPC)); 10 of 10 under setting [11]; 7 of 10 (dose: 2.0 mg/kg/injection, vehicle: Klucel (hydroxypropylcellulose) (HPC)); 10 of 10 under setting [12]. In addition, the survivor count by setting is: (dose: 4.0 mg/kg/injection, vehicle: Klucel (hydroxypropylcellulose) (HPC)) 7 of 10; under setting [13], 8 of 10; (dose: 8.0 mg/kg/injection, vehicle: Klucel (hydroxypropylcellulose) (HPC)) 9 of 10; under setting [14], 9 of 10; (dose: 500.0 micrograms/kg/injection, vehicle: Klucel (hydroxypropylcellulose) (HPC)) 8 of 10.

As to `CN(C)CCN1C(=O)c2cccc3cc([N+](=O)[O-])cc(c23)C1=O`, the T/C is, setting by setting: (dose: 3.13 mg/kg/injection, vehicle: saline with Tween-80) 144 % of control [9 of 10 alive]; (dose: 6.0 mg/kg/injection, vehicle: saline with Tween-80) 140 % of control; (dose: 6.25 mg/kg/injection, vehicle: saline with Tween-80) 139 % of control. In addition, the survivor count (dose: 12.5 mg/kg/injection, vehicle: saline with Tween-80) was 5 of 10.

Consider `CCCC(NC(=O)CNC(=O)OCc1ccccc1)C(=O)O` (stereo not given) (HELM PEPTIDE1{[O=C(OCc1ccccc1)[*:2]].G.[CCCC(N[*:1])C(=O)O]}$$$$V2.0), for which the survivor count under setting [15] is reported as 0 of 10.

Regarding `c1ccc2c(c1)[As]=c1ccccc1=[As]2` (stereo not given), the T/C (dose: 12.0 mg/kg/injection, vehicle: saline with Tween-80) was 127 % of control.

`O=CNCC(=O)O`: for the setting “dose: 200.0 mg/kg/injection, vehicle: saline”, the survivor count is recorded as 10 of 10.

Regarding `Cc1ccc(S(=O)(=O)NC(=O)OC23COCN2COC3)cc1`, the T/C was 128 % of control under setting [6], 128 % of control under setting [7] and 125 % of control under setting [8].

With `C/C=C(\C)c1cc(=O)c2c(C)cc3c(c2o1)C(=O)c1c(O)c(C2CC(C)(N(C)C)C(O)C(C)O2)cc(C2CC(N(C)C)C(O)C(C)O2)c1C3=O` (stereo not given), the T/C reads like this: (dose: 125.0 micrograms/kg/injection, vehicle: saline) 129 % of control; (dose: 250.0 micrograms/kg/injection, vehicle: saline) 135 % of control; (dose: 312.5 micrograms/kg/injection, vehicle: saline) 145 % of control; (dose: 500.0 micrograms/kg/injection, vehicle: saline) 127 % of control [9 of 10 alive]; (dose: 625.0 micrograms/kg/injection, vehicle: saline) 134 % of control; (dose: 1000.0 micrograms/kg/injection, vehicle: saline) 143 % of control. In addition, the survivor count (dose: 2500.0 micrograms/kg/injection, vehicle: saline) was 10 of 10.

For the molecule `Cc1ccnc(NN=O)c1`, the survivor count is recorded as 10 of 10 (dose: 12.5 mg/kg/injection, vehicle: water) and 10 of 10 (dose: 25.0 mg/kg/injection, vehicle: water).

Regarding `Cc1cc(NCCCCCCCCNc2cc(C)nc3cc(N(C)C)ccc23)c2ccc(N(C)C)cc2n1`, the T/C by setting is: (dose: 6.25 mg/kg/injection, vehicle: distilled water + Tween-80) 127 % of control; under setting [1], 130 and 131 % of control; under setting [2], 139 % of control. For the same molecule, the survivor count by setting is: under setting [3], 6 of 10 and 9 of 9; under setting [4], 0 of 10.

Regarding `c1ccc([C@H]2CN3CCSC3=N2)cc1`, the T/C was 96, 99, 101, 104 (2×), 129 % of control under setting [10]; 93, 101, 102, 105, 113 % of control (2×) under setting [11]; 95 [9 of 10 alive], 96 [9 of 10 alive], 97, 99 (2×), 107 % of control [9 of 10 alive] under setting [12]; 93, 98 (3×), 107, 125 % of control under setting [13]; 98, 101, 104 (3×), 119 % of control [9 of 10 alive] under setting [14].

With `O=C1C(O)=C(c2ccccc2)C(=O)C(O)=C1c1ccccc1`, the survivor count (dose: 100.0 mg/kg/injection, vehicle: saline) was 4 of 10 and 6 of 10.

Regarding `O=c1[nH]cnc2c1cnn2CN1CCOCC1`, the survivor count is 7 of 10 (dose: 200.0 mg/kg/injection, vehicle: Klucel (hydroxypropylcellulose) (HPC)) and 1 of 10 under setting [15].

For the molecule `Clc1ccccc1C(Nc1cnccn1)Nc1cnccn1`, the survivor count is given as 10 of 10 under setting [8] and 10 of 10 under setting [9].

For the molecule `CC(=O)NO`, the survivor count (dose: 800.0 mg/kg/injection, vehicle: water) was 10 of 10.
